US10905770B2, “Topical delivery of therapeutic agents using cell-penetrating peptides for the treatment of age-related macular degeneration and other eye diseases” (priority 2017, dated 2021)

Description: Lutein was dissolved in DMSO (10 mg/mL) and titrated into water. […] As a proxy for topical delivery into the eye by eye drop, 50 μL of lutein plus hexa-arginine (SEQ ID NO: 258) or lutein alone was applied to one side of the outer shell membrane of a chicken egg, and the material that crossed the membrane in water was collected after 2 minutes. The level of lutein was measured by absorbance. The experiment was conducted three times (n=3).
Zeaxanthin was dissolved in DMF (10 mg/mL) and titrated into water. […] The level of zeaxanthin was measured by absorbance. […]
Lutein was dissolved in DMSO (10 mg/mL) and titrated into water, zeaxanthin was dissolved in DMF (10 mg/mL) and titrated into water, and then lutein and zeaxanthin were mixed in a 1:1 ratio. […] The level of lutein and zeaxanthin was measured by absorbance. […]
Dexamethasone was dissolved in DMSO and titrated into water. […] The presence of dexamethasone was detected by electrospray mass spectroscopy.
Tacrolimus was dissolved in DMSO and titrated into water. […] The presence of tacrolimus was detected by electrospray mass spectroscopy.
Adalimumab was fluorescently tagged and purified. […] The level of adalimumab was measured by fluorescence. […]

SMILES: CC(C)c1c(C(=O)Nc2ccccc2)c(-c2ccccc2)c(-c2ccc(F)cc2)n1CC[C@@H](O)C[C@@H](O)CC(=O)O [atorvastatin, reference compound]
- crossing of the egg shell membrane (electrospray mass spectroscopy): did not cross
